What all share (conditions): K562, 2-18 h
The target of one experiment is RET (UniProt P07949). The experiment is described as follows: kinase-Nluc reporter destabilization hit call (1 = scored as downregulated) (binary); higher = compound decreases kinase abundance.
Experiment [1] has as its target RET_M918T (clone: RET_mut) (UniProt P07949). The description is as above.
In the next experiment the target is RIOK1 (UniProt Q9BRS2). The description is as above.
The target in a further experiment is RIPK1 (UniProt Q13546). The description is as above.
A further experiment addresses RIPK2 (UniProt O43353). Described as above.
A further experiment has as its target ROR2 (UniProt Q01974). Described as above.
The target in the next experiment is RPS6KA1 (UniProt Q15418). The description is as above.
The next experiment addresses SPHK1 (UniProt Q9NYA1). The description is as above.
For another experiment, the target named is SRC (UniProt P12931). Described as above.
Another experiment has as its target STK24 (UniProt Q9Y6E0). The experiment is described as above.
The next experiment addresses STK38 (UniProt Q15208). The experiment is described as above.
Another experiment has as its target SYK (UniProt P43405). The experiment is described as above.
The next experiment addresses TEC (UniProt P42680). Described as above.
For the next experiment, the target named is TYK2 (UniProt P29597). The description is as above.
The target in the next experiment is ULK3 (UniProt Q6PHR2). Described as above.
For the next experiment, the target named is YES1 (UniProt P07947). Described as above.
A further experiment has as its target ZAP70 (UniProt P43403). Described as above.
A further experiment addresses CDK4 (UniProt P11802). The experiment is described as follows: number of time points (of 4; 2 h point missing) at which kinase-Nluc abundance scored as decreased, DMSO-normalised (count); higher = more persistent destabilization.
Another experiment has as its target CDK7 (UniProt P50613). Described as above.
For a further experiment, the target named is ZAK (UniProt Q9NYL2). The experiment is described as follows: kinase-Nluc reporter destabilization hit call (1 = scored as downregulated) (binary); higher = compound decreases kinase abundance.

Protein sequences, listed by entry. Tags and fused reporters are not part of them. Lines headed by an entry give the natural chain unless they say otherwise; changes in a name come on top.
UniProt P07949, whole entry, looked up: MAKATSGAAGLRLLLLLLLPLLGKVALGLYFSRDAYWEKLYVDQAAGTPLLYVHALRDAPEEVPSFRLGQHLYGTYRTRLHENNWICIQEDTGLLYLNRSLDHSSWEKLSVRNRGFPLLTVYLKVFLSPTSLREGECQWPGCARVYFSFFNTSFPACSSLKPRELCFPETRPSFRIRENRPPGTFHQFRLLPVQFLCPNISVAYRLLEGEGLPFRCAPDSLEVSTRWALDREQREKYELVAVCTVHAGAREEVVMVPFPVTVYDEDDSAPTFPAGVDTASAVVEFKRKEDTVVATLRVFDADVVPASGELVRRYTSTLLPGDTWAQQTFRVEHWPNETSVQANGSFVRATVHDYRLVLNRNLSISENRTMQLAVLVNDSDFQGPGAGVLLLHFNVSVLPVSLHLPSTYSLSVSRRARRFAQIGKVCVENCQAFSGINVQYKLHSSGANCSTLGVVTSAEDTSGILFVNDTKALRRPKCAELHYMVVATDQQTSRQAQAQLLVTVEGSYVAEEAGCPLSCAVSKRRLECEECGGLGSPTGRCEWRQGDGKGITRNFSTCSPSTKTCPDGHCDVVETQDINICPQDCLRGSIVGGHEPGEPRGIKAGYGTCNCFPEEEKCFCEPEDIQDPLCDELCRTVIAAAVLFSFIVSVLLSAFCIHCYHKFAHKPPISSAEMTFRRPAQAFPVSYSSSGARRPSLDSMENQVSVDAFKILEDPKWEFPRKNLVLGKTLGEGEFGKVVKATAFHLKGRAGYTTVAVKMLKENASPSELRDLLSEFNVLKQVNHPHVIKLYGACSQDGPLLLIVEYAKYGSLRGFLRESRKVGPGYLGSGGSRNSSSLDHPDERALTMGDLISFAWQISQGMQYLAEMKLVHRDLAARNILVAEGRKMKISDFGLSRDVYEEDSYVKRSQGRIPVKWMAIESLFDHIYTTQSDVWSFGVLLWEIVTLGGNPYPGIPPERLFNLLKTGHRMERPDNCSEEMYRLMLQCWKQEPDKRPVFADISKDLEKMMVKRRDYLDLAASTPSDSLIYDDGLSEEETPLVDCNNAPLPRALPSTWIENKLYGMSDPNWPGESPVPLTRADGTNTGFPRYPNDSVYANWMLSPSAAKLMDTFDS
UniProt P07949, whole entry M918T, looked up: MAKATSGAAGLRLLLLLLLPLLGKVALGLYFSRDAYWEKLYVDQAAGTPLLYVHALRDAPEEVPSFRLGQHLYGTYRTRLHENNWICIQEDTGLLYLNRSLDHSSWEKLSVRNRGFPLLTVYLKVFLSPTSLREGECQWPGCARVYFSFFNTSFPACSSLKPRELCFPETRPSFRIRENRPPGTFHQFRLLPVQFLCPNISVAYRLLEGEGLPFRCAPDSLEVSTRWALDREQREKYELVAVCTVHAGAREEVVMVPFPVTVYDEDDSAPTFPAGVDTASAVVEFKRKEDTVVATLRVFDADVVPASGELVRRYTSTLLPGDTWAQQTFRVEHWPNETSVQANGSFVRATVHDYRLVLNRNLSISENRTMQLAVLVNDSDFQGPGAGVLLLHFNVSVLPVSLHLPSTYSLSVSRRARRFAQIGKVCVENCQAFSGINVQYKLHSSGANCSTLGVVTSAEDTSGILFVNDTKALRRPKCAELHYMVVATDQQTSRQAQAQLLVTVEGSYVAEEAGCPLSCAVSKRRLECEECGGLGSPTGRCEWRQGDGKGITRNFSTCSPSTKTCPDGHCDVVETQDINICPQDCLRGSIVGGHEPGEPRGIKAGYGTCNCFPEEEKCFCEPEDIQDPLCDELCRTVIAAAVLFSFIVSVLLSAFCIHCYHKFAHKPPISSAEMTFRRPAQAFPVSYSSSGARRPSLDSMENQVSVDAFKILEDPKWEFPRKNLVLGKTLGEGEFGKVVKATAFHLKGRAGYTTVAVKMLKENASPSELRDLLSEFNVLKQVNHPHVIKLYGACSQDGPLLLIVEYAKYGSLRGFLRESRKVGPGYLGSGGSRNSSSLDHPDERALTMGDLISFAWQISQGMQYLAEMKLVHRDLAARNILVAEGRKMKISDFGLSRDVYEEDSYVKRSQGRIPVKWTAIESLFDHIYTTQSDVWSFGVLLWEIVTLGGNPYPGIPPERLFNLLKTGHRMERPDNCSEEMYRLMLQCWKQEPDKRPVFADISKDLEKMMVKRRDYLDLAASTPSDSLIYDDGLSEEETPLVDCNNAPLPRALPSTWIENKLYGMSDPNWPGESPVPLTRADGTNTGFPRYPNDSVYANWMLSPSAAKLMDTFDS
UniProt Q9BRS2: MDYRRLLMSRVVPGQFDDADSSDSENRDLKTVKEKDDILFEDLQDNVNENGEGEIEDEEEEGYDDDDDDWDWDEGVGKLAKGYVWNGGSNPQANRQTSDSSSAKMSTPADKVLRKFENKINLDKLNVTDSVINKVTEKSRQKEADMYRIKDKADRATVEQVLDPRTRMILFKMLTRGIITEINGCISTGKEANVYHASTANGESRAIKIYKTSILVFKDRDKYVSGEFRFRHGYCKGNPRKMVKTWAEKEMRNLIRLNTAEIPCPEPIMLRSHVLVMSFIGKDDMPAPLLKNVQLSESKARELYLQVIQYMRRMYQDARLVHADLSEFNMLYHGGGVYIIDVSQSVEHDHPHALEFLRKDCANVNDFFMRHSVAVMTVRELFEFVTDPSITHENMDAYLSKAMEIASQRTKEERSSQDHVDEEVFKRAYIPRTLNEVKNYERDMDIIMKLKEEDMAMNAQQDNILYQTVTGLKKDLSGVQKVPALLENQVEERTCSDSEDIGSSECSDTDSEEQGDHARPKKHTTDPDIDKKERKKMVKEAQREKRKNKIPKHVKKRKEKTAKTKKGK
UniProt Q01974, whole entry: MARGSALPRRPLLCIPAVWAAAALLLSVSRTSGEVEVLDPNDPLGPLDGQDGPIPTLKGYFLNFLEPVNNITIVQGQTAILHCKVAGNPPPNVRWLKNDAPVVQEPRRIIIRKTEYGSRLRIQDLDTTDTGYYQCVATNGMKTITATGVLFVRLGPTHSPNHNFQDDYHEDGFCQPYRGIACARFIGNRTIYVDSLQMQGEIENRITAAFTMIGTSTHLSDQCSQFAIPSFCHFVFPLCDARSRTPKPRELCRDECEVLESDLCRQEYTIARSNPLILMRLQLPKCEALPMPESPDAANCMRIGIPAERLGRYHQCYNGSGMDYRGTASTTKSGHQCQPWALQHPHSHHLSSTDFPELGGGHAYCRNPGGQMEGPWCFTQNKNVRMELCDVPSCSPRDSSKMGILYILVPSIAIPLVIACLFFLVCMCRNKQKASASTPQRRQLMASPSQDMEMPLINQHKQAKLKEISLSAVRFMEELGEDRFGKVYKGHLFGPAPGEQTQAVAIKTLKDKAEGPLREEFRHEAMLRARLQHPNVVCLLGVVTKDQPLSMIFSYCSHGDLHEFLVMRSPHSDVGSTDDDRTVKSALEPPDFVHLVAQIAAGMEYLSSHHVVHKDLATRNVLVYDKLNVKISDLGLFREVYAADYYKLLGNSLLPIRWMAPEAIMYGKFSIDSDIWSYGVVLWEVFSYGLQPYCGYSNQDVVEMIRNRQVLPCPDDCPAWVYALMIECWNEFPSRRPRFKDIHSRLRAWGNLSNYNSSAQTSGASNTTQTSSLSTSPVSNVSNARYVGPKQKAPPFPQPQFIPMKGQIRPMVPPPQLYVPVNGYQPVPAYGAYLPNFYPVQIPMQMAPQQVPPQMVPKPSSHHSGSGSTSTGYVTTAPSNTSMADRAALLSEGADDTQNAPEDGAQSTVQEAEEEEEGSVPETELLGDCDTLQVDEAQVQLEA
UniProt Q15418, whole entry: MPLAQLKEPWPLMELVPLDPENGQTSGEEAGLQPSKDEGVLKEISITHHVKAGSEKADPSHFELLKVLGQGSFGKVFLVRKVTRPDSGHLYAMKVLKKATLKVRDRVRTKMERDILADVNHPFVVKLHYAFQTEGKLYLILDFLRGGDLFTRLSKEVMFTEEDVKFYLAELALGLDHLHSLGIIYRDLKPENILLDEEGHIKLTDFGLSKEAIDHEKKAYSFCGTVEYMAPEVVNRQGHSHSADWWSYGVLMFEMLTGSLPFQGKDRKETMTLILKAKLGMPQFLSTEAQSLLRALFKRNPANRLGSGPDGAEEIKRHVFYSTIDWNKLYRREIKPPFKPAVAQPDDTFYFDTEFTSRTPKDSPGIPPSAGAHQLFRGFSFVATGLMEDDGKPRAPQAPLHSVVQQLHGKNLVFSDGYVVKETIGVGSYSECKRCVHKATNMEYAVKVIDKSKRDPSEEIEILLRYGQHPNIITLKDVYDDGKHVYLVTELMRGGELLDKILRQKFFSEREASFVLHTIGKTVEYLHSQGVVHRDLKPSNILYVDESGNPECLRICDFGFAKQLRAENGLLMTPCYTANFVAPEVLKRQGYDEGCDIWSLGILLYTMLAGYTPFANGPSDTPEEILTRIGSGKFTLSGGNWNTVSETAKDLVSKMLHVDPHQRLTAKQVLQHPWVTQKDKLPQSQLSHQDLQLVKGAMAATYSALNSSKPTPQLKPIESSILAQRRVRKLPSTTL
UniProt P42680: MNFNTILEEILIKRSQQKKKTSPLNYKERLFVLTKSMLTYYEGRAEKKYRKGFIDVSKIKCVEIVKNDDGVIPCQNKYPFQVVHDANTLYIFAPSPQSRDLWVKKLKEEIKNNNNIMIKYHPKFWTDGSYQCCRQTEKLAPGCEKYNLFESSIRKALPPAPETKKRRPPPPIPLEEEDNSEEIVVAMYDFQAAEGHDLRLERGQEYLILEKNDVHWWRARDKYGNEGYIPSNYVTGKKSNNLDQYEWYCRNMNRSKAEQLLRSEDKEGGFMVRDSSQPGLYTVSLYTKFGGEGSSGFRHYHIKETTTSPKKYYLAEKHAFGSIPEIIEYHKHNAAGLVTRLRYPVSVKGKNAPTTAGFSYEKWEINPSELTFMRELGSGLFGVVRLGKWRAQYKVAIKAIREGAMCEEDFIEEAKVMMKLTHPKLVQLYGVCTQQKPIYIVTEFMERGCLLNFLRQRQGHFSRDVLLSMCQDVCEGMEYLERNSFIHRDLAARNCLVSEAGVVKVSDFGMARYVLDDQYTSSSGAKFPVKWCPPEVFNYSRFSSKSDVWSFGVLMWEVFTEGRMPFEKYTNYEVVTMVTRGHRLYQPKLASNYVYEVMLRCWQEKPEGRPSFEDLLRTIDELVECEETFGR
UniProt Q6PHR2: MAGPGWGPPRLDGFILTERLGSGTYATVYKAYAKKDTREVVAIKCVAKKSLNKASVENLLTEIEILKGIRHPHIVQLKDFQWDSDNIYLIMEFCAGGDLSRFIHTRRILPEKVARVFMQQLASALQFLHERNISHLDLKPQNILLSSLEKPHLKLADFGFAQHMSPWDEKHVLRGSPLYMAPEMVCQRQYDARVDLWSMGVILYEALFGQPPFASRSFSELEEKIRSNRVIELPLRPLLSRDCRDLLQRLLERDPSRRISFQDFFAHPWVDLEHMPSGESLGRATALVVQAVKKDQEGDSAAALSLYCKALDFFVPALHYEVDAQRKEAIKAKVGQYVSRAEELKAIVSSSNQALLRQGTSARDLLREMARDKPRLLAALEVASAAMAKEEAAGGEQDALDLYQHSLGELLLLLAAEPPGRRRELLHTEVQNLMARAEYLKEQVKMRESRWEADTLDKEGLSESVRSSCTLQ
UniProt P07947, whole entry, looked up: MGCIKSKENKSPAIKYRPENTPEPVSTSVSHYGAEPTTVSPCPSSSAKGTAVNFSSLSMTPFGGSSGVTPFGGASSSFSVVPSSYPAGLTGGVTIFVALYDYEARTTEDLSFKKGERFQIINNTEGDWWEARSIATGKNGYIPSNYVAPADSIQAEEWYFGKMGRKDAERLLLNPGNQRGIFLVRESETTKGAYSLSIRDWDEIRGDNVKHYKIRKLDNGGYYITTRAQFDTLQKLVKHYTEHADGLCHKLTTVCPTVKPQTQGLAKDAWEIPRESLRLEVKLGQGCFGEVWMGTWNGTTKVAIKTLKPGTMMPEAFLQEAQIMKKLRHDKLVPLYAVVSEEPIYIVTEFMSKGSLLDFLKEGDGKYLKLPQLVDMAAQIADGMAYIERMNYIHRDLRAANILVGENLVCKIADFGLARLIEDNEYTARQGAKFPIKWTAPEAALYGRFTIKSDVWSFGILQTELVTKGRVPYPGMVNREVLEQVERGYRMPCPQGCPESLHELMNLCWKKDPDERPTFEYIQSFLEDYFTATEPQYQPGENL
UniProt P11802: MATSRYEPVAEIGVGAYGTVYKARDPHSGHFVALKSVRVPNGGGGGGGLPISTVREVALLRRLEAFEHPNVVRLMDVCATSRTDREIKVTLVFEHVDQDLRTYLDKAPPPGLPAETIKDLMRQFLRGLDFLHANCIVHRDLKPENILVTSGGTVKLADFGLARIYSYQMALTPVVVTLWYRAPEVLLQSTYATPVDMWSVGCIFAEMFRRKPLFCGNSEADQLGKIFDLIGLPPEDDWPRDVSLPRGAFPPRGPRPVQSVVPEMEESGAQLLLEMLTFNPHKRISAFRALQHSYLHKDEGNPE

Some of the results follow. The calls rarely recur for the same compound in another form.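 In K562 cells expressing nanoluciferase-fused kinases, luminescence was recorded at 4 h intervals between 2 and 18 h, normalized as percent of control with DMSO at 100% and a positive control at 0%. A significant (2 sigma) signal drop marks a time point as decreased. The authors' rule for a hit is not shown and takes in more than the number of time points.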

Consider `COc1cc(Nc2c(C#N)cnc3cc(OCCCN4CCN(C)CC4)c(OC)cc23)c(Cl)cc1Cl` [Bosutinib], for which the “kinase-Nluc reporter destabilization hit call” value (with RET (2.5 µM); in experiment [1] (2.5 µM); with RIOK1 (2.5 µM); with RIPK1 (2.5 µM); with RIPK2 (2.5 µM); in the experiment with ROR2 (2.5 µM)) was inactive: 0 in each case. In addition, the “kinase-Nluc reporter destabilization hit call” value with RPS6KA1 (2.5 µM), in the experiment with SPHK1 (2.5 µM), in the experiment with SRC (2.5 µM), with STK24 (2.5 µM), with STK38 (2.5 µM) and with SYK (2.5 µM) was inactive: 0 each time. Also, the “kinase-Nluc reporter destabilization hit call” value with TEC (2.5 µM), in the experiment with TYK2 (2.5 µM), in the experiment with ULK3 (2.5 µM), with YES1 (2.5 µM) and with ZAP70 (2.5 µM) was inactive: 0 throughout. The “number of time points” value with CDK4 (2.5 µM) came to 0; in the experiment with CDK7 (2.5 µM) it was 2.

`COc1cc(N2CCC(N3CCN(C)CC3)CC2)ccc1Nc1ncc(Cl)c(Nc2ccccc2S(=O)(=O)C(C)C)n1`: the “kinase-Nluc reporter destabilization hit call” value with RIOK1 (2.5 µM), in the experiment with RIPK1 (2.5 µM), with RIPK2 (2.5 µM), with ROR2 (2.5 µM), with RPS6KA1 (2.5 µM) and with SPHK1 (2.5 µM) was inactive: 0 throughout. Besides, the “kinase-Nluc reporter destabilization hit call” value with SRC (2.5 µM), with STK24 (2.5 µM), with STK38 (2.5 µM), in the experiment with SYK (2.5 µM), in the experiment with TEC (2.5 µM) and with TYK2 (2.5 µM) was inactive: 0 each time. In addition, the “kinase-Nluc reporter destabilization hit call” value in the experiment with ULK3 (2.5 µM), in the experiment with YES1 (2.5 µM), with ZAK (2.5 µM) and with ZAP70 (2.5 µM) was inactive: 0 each time. The “number of time points” value with CDK4 (2.5 µM) and in the experiment with CDK7 (2.5 µM) was 0 each time.

For `O=C(O)c1ccc(Nc2ncc3c(n2)-c2ccc(Cl)cc2C(c2c(F)cccc2F)=NC3)cc1`, the “kinase-Nluc reporter destabilization hit call” value (with RET (10 µM); in [1] (10 µM); in the experiment with RIOK1 (10 µM); with RIPK1 (10 µM); in the experiment with RIPK2 (10 µM); in the experiment with ROR2 (10 µM)) was inactive: 0 throughout. In addition, the “kinase-Nluc reporter destabilization hit call” value with SPHK1 (10 µM), in the experiment with STK24 (10 µM), with STK38 (10 µM), with SYK (10 µM), in the experiment with TEC (10 µM) and with TYK2 (10 µM) was inactive: 0 in each case. In addition, the “kinase-Nluc reporter destabilization hit call” value in the experiment with ULK3 (10 µM), with YES1 (10 µM), in the experiment with ZAK (10 µM) and with ZAP70 (10 µM) was inactive: 0 each time. The “number of time points” value in the experiment with CDK4 (10 µM) and with CDK7 (10 µM) was 0 in each case.

In the case of `CNC(=O)c1cc(Oc2ccc(NC(=O)Nc3ccc(Cl)c(C(F)(F)F)c3)cc2)ccn1` [Sorafenib (Tosylate)], the “kinase-Nluc reporter destabilization hit call” value (with RET (10 µM); in experiment [1] (10 µM); with RIOK1 (10 µM); with RIPK1 (10 µM); with RIPK2 (10 µM); with ROR2 (10 µM)) was inactive: 0 in each case. Besides, the “kinase-Nluc reporter destabilization hit call” value with RPS6KA1 (10 µM), with SPHK1 (10 µM), with STK24 (10 µM), with STK38 (10 µM), with SYK (10 µM) and with TEC (10 µM) was inactive: 0 in each case. For the same compound, the “kinase-Nluc reporter destabilization hit call” value with TYK2 (10 µM), with ULK3 (10 µM), in the experiment with YES1 (10 µM), with ZAK (10 µM) and with ZAP70 (10 µM) was inactive: 0 each time. The “number of time points” value with CDK4 (10 µM) and in the experiment with CDK7 (10 µM) was 0 throughout.

On to `Fc1ccc(-c2nc(-c3ccc4ccccc4c3F)[nH]c2-c2ccncc2)cc1`, for which the “kinase-Nluc reporter destabilization hit call” value (in experiment [1] (10 µM); with RIOK1 (10 µM); in the experiment with RIPK1 (10 µM); with RIPK2 (10 µM); with ROR2 (10 µM); in the experiment with RPS6KA1 (10 µM)) was inactive: 0 each time. Moreover, the “kinase-Nluc reporter destabilization hit call” value with SPHK1 (10 µM), with SRC (10 µM), with STK24 (10 µM), in the experiment with STK38 (10 µM), in the experiment with SYK (10 µM) and in the experiment with TEC (10 µM) was inactive: 0 in each case. The “kinase-Nluc reporter destabilization hit call” value is active: 1 in the experiment with TYK2 (10 µM); inactive: 0 in the experiment with ULK3 (10 µM); inactive: 0 in the experiment with YES1 (10 µM); inactive: 0 with ZAK (10 µM); inactive: 0 in the experiment with ZAP70 (10 µM). Moreover, the “number of time points” value with CDK4 (10 µM) and with CDK7 (10 µM) was 0 throughout.

The record behind these values is the supplement of paper PMC12823440, “Inhibitors supercharge kinase turnover through native proteolytic circuits” (Nature, 2025).
